{"source": "PubChem BioAssay AID1224826, NIAID, 2016", "screen": "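Knock-downs that raise or lower Tnf reporter signal after endotoxin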 (primary screen)", "cells": "RAW264.7 G9 macrophages from mouse bearing reporters for p65 (GFP) and the Tnf promoter (mCherry)", "knock-down reagent": "siRNA pool against mouse genes, 100 nM", "duration": "16 h of LPS stimulation, after 2 days of siRNA transfection", "treatment": "bacterial lipopolysaccharide (Salmonella minnesota R595), 10 ng/ml", "read-out": "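Imaged Tnf reporter mCherry in nuclei, minus background, normalised per plate to the median and expressed as robust z-scores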", "reading the numbers": "Tnf reporter robust z-score: higher = stronger Tnf promoter reporter signal after LPS", "active means": "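Called active when robust z-score is at most -1.3, matching the median of the Tlr4 knock-down control, or over 3; control wells and wells with under 50 cells never active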", "meaning of the calls": "active = Tnf reporter clearly lowered or raised; inactive = no clear change in Tnf reporter", "note": "The whole screen tested about 17,000 reagents; shown is a part drawn at random. About 1,110 of all reagents (6.6%) count as active. 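Active means lowered or raised reporter signal; replicate intensities are raw and not normalised per plate.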 A number with no mark means an inactive call. Some reagents were tested in more than one well and are listed for each. Further read-outs or replicates are left out here."}
{"gene knocked down":"Spry2","Tnf reporter robust z-score":"-1.55 (active)","fewer than 50 cells in well":"enough cells in well"}
{"gene knocked down":"Bpifa1","Tnf reporter robust z-score":"-2.09 (active)","fewer than 50 cells in well":"enough cells in well"}
{"gene knocked down":"Gpr18","Tnf reporter robust z-score":0.54,"fewer than 50 cells in well":"enough cells in well"}
{"gene knocked down":"Ciao2b","Tnf reporter robust z-score":-0.16,"fewer than 50 cells in well":"enough cells in well"}
{"gene knocked down":"Or2l5","Tnf reporter robust z-score":1.72,"fewer than 50 cells in well":"enough cells in well"}
{"gene knocked down":"H1f5","Tnf reporter robust z-score":0.22,"fewer than 50 cells in well":"enough cells in well"}
{"gene knocked down":"Actl6a","fewer than 50 cells in well":"fewer than 50 cells per well; well left out of calls"}
{"gene knocked down":"Actl6a","Tnf reporter robust z-score":-1.02,"fewer than 50 cells in well":"enough cells in well"}

Entries listed above called active, once more:
{"gene knocked down":"Spry2","Tnf reporter robust z-score":"-1.55 (active)","fewer than 50 cells in well":"enough cells in well"}
{"gene knocked down":"Bpifa1","Tnf reporter robust z-score":"-2.09 (active)","fewer than 50 cells in well":"enough cells in well"}

Continued.
{"gene knocked down":"Loxl1","Tnf reporter robust z-score":0.78,"fewer than 50 cells in well":"enough cells in well"}
{"gene knocked down":"Or7g30","Tnf reporter robust z-score":"-1.53 (active)","fewer than 50 cells in well":"enough cells in well"}
{"gene knocked down":"Svep1","Tnf reporter robust z-score":-0.44,"fewer than 50 cells in well":"enough cells in well"}
{"gene knocked down":"Ptbp3","Tnf reporter robust z-score":-0.33,"fewer than 50 cells in well":"enough cells in well"}
{"gene knocked down":"Ripor1","fewer than 50 cells in well":"fewer than 50 cells per well; well left out of calls"}
{"gene knocked down":"Ufsp1","fewer than 50 cells in well":"fewer than 50 cells per well; well left out of calls"}
{"gene knocked down":"Hivep3","Tnf reporter robust z-score":-1.24,"fewer than 50 cells in well":"enough cells in well"}
{"gene knocked down":"Proz","Tnf reporter robust z-score":0.01,"fewer than 50 cells in well":"enough cells in well"}
{"gene knocked down":"Kcnab3","Tnf reporter robust z-score":0.45,"fewer than 50 cells in well":"enough cells in well"}
{"gene knocked down":"Myo1f","Tnf reporter robust z-score":-1.16,"fewer than 50 cells in well":"enough cells in well"}
{"gene knocked down":"Rnf150","Tnf reporter robust z-score":1.08,"fewer than 50 cells in well":"enough cells in well"}
{"gene knocked down":"Morc1","Tnf reporter robust z-score":2.53,"fewer than 50 cells in well":"enough cells in well"}
{"gene knocked down":"Atp13a2","Tnf reporter robust z-score":-0.18,"fewer than 50 cells in well":"enough cells in well"}
